Seven molecules from PMC9037272 can be followed below.

The target in experiment [1] is T1, EYFP-CG4364 (Drosophila melanogaster) (UniProt Q9VL96).
T1 sequence: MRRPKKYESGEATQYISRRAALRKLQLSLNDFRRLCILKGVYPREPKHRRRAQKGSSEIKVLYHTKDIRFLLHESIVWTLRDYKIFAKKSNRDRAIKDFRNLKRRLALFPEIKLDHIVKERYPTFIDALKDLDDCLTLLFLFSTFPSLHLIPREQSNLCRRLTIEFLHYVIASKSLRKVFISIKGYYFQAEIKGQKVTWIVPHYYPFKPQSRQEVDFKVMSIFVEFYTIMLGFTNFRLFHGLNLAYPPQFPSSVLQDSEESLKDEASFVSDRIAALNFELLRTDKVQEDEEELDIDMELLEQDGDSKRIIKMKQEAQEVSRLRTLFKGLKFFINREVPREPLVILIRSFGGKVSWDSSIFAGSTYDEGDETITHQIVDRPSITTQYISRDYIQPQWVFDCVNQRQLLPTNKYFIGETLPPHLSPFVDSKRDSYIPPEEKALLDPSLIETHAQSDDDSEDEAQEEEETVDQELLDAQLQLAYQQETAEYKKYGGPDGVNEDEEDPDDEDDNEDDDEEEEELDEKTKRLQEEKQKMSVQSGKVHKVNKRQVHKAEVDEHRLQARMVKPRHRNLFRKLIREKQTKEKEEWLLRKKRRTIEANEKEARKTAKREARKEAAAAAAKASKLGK
The experiment is described as follows: FRET or BRET; FRET efficiency by flow cytometry in co-transfected HEK-293T cells 24 h post-transfection; donor mCerulean fusion, acceptor mEYFP fusion; Cer alone as negative control. On the technique in general: In BRET a luciferase serves as donor, and the signal depends on an acceptor being close.

The target of experiment [2] is T2, EYFP-CCT7 (Drosophila melanogaster) (UniProt Q9VHL2).
T2 sequence: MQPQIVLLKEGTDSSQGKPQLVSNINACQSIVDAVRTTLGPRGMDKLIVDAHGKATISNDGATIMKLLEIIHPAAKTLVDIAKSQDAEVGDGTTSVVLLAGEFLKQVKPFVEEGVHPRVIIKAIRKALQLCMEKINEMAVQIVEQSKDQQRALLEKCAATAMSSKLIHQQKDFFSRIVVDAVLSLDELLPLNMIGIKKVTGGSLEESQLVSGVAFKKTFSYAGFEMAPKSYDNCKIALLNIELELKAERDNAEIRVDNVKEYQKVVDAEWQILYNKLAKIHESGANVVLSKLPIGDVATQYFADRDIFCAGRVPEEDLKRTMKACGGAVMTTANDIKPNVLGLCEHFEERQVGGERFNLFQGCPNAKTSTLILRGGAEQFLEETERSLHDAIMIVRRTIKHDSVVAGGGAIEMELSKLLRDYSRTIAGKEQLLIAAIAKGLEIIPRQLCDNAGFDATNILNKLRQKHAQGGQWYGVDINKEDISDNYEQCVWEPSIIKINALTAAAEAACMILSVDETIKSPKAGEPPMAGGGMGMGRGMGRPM
The experiment is described as above.

Experiment [3] deals with HA-EGFP-NtFT4 (tobacco (Nicotiana tabacum)). The experiment is described as follows: co-IP; S2 cells transiently co-transfected with HA-EGFP-NtFT4 and a Myc-tagged partner; magnetic anti-HA beads; eluates blotted with anti-Myc.
In experiment [4] the target is NtFT2, two-hybrid bait (pGBKT7-NtFT2) (tobacco (Nicotiana tabacum)). The experiment is described as follows: two-hybrid; Matchmaker Gold system; pGBKT7-NtFT2 bait in S. cerevisiae Y2HGold screened against a normalized Drosophila cDNA library; full-length coding sequences in pGADT7 re-analysed in a drop test on selective medium.
In experiment [5] the target is Drosophila PEBP CG7054, split-mRFP fusion (NmRFP-CG7054) (Drosophila melanogaster). The experiment is described as follows: split reporter; split mRFP fusions (NmRFP, CmRFP; all combinations of C- or N-terminal fusions tested) transiently expressed in infiltrated N. benthamiana leaves; confocal microscopy; interaction confirmed if at least five independent images showed fluorescence.

The target of experiment [6] is NtFT4, split-mRFP fusion for BiFC (tobacco (Nicotiana tabacum)). The description is as above.
The target of experiment [7] is NtFT2, split-mRFP fusion for BiFC (tobacco (Nicotiana tabacum)). Described as above.

These are yes or no findings as the source states them, for the method shown. Binding calls can cover weak binding; strength is not graded here. For some of these results: In cells and extracts the contact can be indirect. For some of these results: Sequences can lack the tags named with a protein.

As for “Cer-NtFT4 (mCerulean fusion of NtFT4) (tobacco (Nicotiana tabacum))”, the binding entry in experiment [1] and in experiment [2] was “binds” in each case.

B1: Myc-CG4364 (protein, UniProt Q9VL96 1-627)
chain: T1 sequence
Regarding B1, the binding result in experiment [3] is “binds”.

B2: Myc-CCT7 (protein, UniProt Q9VHL2 1-544)
chain: T2 sequence
Turning to B2, the binding entry in experiment [3] is listed as “binds”.

B3: Myc-Hsp26 (protein, UniProt P02517 1-208)
chain: MSLSTLLSLVDELQEPRSPIYELGLGLHPHSRYVLPLGTQQRRSINGCPCASPICPSSPAGQVLALRREMANRNDIHWPATAHVGKDGFQVCMDVAQFKPSELNVKVVDDSILVEGKHEERQDDHGHIMRHFVRRYKVPDGYKAEQVVSQLSSDGVLTVSIPKPQAVEDKSKERIIQIQQVGPAHLNVKANESEVKGKENGAPNGKDK
For B3, the binding result in experiment [3] is “binds”.

B4: 4E-T, two-hybrid prey (pGADT7) (protein, UniProt Q8IH18 1-1010)
chain: MDTSKISARYSKVDLLALRYEGKSRQRPQCSTRLELQTLGFWKINLNTAALTVSSAYSNQNKNRLSPEADNSSLICSNSSSISSRRAMRNRERANNYYQRFVPTDSLLISGEDKDKDALSHGQPYKLNIIDHRSISSSHLMPAFAKRRFVISKGSNSEESNEGINTCASKGKAASSPSRKGSELDTAETCLNFVQPDHDQCMSSSPTFSTSRQERRIGSGRLLPRSDNWDYKNEKTVEASIENEKETSPNGSGSTSSLNQHNQSQHRSRTFSGRLVERVPEVTDRRFQYDSKKSFDRQGINNRRISGKEPFSTQSRSKRGNSYLIHEEPEWFSAGPKSQLETIDLHGFEDLEKNEERSVTEDKNNQIQQLDKNLDAQASKDEASMRNSNDSLNFREVIPSDEKKHTDENVVTSIQNSTDLGHPNKNKPIQMQPSQNPESEFNFDAFLNMHPLDNSVLSNDETGKSDSKGTSRFSRWFRQKEAANNNEFPGFRESHAQEKRGIPSVKDLEAQMIKVDMRTDLINPIAGSLCQTVQMEKPIARDTEAFKKLLQQLGSQARQHHPCNDDCRTINLSNIANHVHLESKLHQKINDGHLQQPELSVNVPTMPTSSHVFLQKRLEIQHLIQRLHCGDVSHDFLEKELDNPSTPAATKDVIATVLNEYSHSKRNPVVTGDPNIFTQQSFLQPQSVHQHYSQELHSQNTANHTINQLISHGNSPTPLAFTPTSVLRKMTADKDTQSPSTYCQNPQYHVHQQNAKQVGTRENVLEPQLTATMAVQPRMILGGGNFAIGQNNQHLSPNMSQSRNQQVLKWTSGNMQMVHGKTFGRPILKGGLNSMPHSNSALPFTAHKIEMQPIHQPHLQQQQHRFKAVQSVESNLNTESVHQNITSPVGWHQLYMQHQQQHHHTRQQLSQRVIYGEMHRQSNPQMSPPVPGFSDSSDSGNVIKANSLTSPSYQRDERISSPTNQLAQWFSPELLAKASAGKLPLLNVNQALSLEEFERSIQHSSGVVHN
B4: in experiment [4], the binding entry is recorded as “binds”.

B5: RHEB, split-mRFP fusion for BiFC (protein, UniProt Q9VND8 1-182)
chain: MPTKERHIAMMGYRSVGKSSLCIQFVEGQFVDSYDPTIENTFTKIERVKSQDYIVKLIDTAGQDEYSIFPVQYSMDYHGYVLVYSITSQKSFEVVKIIYEKLLDVMGKKYVPVVLVGNKIDLHQERTVSTEEGKKLAESWRAAFLETSAKQNESVGDIFHQLLILIENENGNPQEKSGCLVS
As for B5, the binding entry in experiment [5], in experiment [6] and in experiment [7] was “binds” each time.

B6: RHEB, two-hybrid prey (pGADT7) (protein, UniProt Q9VND8 1-182)
chain: B5 chain
With B6, the binding result in experiment [4] was “binds”.
